Results as given in PubChem BioAssay AID2685 (National Center for Advancing Translational Sciences (NCATS), 2010).
The other results are listed elsewhere or left out. Shown are side measurements of this screen, not its main read-out; they come without a call. Compounds called inactive in the main read-out are mostly missing here. Potencies come from curve fits of mixed quality, noted in brackets.

Assay: qHTS Assay for Lipid Storage Modulators in Drosophila S3 Cells;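 as to cell number change: cells counted by Cell Tracker Red CMTPX staining in the red channel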
Conditions: BODIPY lipid droplet fluorescence, 18-24 h; for cell number change: measured here: cell count max response, cells fed with added oleic acid
How it was run: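 Drosophila S3 cells loaded with oleic acid (400 uM, as added) and compounds at several concentrations; lipid droplets imaged by 488-nm laser-scanning cytometry, 500–530 nm intensity and object ratio to cell channel. Percent activity normalized to 20 uM Triacsin C.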

[1] = measured here: cell number channel AC50, cells fed with added oleic acid
[2] = measured here: lipid fluorescence (Fed channel) AC50, cells fed with added oleic acid

Row | Structure (SMILES) | cell number change | AC50 [1] | AC50 [2]
1 | O=C(NC(NC(=S)Nc1ccc(Cl)cc1)C(Cl)(Cl)Cl)c1ccco1 (centres undefined) | -41.1% | 32.6 µM [falling, single point] | 29.1 µM [falling, single point]
2 | Cc1cc(C(=O)CN2C(=O)c3ccccc3S2(=O)=O)c(C)n1CC1CCCO1 (centres undefined) | 35.1% | 7.31 µM [rising, partial curve] | 
3 | C/C(=N\NC(=O)c1nnn(-c2nonc2N)c1-c1ccccc1)c1cccnc1 | -1.7% |  | 3.26 µM [rising, single point]
4 | COc1ccccc1N1CCN(C(=O)c2ccc(-c3ccc(Cl)cc3)o2)CC1 | -14.6% | 0.082 µM [rising, full curve, poor fit] | 
5 | COc1ccc(O)c(/C=N/Nc2nc(Nc3ccccc3)nc(-n3nc(C)cc3C)n2)c1 | -39.7% | 9.2 µM [falling, partial curve] | 20.6 µM [falling, partial curve]
6 | CC1CCc2cc(F)ccc2N1C(=O)CCl (centres undefined) | 2.16% | 1.3 µM [falling, partial curve] | 1.46 µM [falling, full curve]
7 | O=C(CCCCCN1C(=O)[C@@H]2Cc3ccccc3CN2C1=O)NCCc1ccccc1 | -4.72% | 5.8 µM [rising, single point] | 
8 | CC(C)c1cc(N2CCOCC2)n2ncc(-c3ccccc3)c2n1 | 5.67% |  | 
9 | O=C(O)C1CC=CCC1C(=O)NCCc1csc(-c2ccccc2)n1 (centres undefined) | 21.9% |  | 0.651 µM [rising, full curve, poor fit]
10 | Cc1ccc(NC(=O)C2CCC(CNC(=O)[C@@H]3Cc4ccccc4CN3)CC2)cc1 (some centres undefined) | 31.1% | 32.6 µM [rising, single point] | 
11 | CC12CCC(=O)N1C(C(=O)OCC(=O)Nc1cccc(Br)c1)CS2 (centres undefined) | -12.5% |  | 29.1 µM [falling, single point]
12 | COC(c1ccccc1)c1nnc(CCC(=O)N(C)CCCC2CCCC2)o1 (centres undefined) | -46.5% | 23.1 µM [falling, partial curve, poor fit] | 
13 | CCOc1ccc(CCNC(=O)C(C)n2nc(C)c3c(C)n(-c4ccccc4)nc3c2=O)cc1 (centres undefined) | -12.4% |  | 16.4 µM [falling, single point]
14 | CCn1c(SCC(=O)Nc2nnc(C)s2)nnc1C(C)NC(=O)c1ccccc1 (centres undefined) | 22.6% |  | 
15 | CCN(CC)CCSc1nnc2c3ccccc3n(Cc3ccccc3)c2n1 | 4.97% |  | 0.00517 µM [rising, full curve, poor fit]
16 | N/C(=N\OC(=O)Cc1ccc([N+](=O)[O-])cc1)c1ccccn1 | 51.4% | 8.2 µM [rising, partial curve] | 29.1 µM [rising, single point]

Random excerpt: 2 entries already listed, in no set order.
Row | Structure (SMILES) | cell number change | AC50 [1] | AC50 [2]
16 | N/C(=N\OC(=O)Cc1ccc([N+](=O)[O-])cc1)c1ccccn1 | 51.4% | 8.2 µM [rising, partial curve] | 29.1 µM [rising, single point]
7 | O=C(CCCCCN1C(=O)[C@@H]2Cc3ccccc3CN2C1=O)NCCc1ccccc1 | -4.72% | 5.8 µM [rising, single point] | 
